At least one peptide structure holds a part that was inferred or is arguable (an end, a ring closure or a residue).
Tested on: Merino female sheep
Assay: Sheep anterior cervical interbody fusion model
Assay type: in vivo
Conditions: 12 weeks

CC[C@H](C)[C@H](NC(=O)[C@H](CCC(=O)O)NC(=O)[C@H](CO)NC(=O)[C@@H](NC(=O)[C@H](CO)NC(=O)[C@H](CCCNC(=N)N)NC(=O)[C@H](CC(N)=O)NC(=O)[C@H](CCCCN)NC(=O)[C@H](Cc1ccc(O)cc1)NC(=O)[C@H](CC(C)C)NC(=O)[C@@H]1CCCN1C(=O)[C@H](CO)NC(=O)[C@@H](NC(=O)[C@H](CCC(N)=O)NC(=O)[C@H](CCC(=O)O)NC(=O)[C@H](CCC(N)=O)NC(=O)[C@@H](N)CC(N)=O)C(C)C)C(C)C)C(=O)N[C@@H](CCC(N)=O)C(=O)N[C@@H](CC(C)C)C(=O)N[C@@H](CCSC)C(=O)N[C@@H](Cc1c[nH]cn1)C(=O)N[C@@H](CC(N)=O)C(=O)N[C@@H](CC(C)C)C(=O)NCC(=O)N[C@@H](CCCCN)C(=O)N[C@@H](Cc1c[nH]cn1)C(=O)N[C@@H](CC(C)C)C(=O)N[C@@H](CC(N)=O)C(=O)N[C@@H](CO)C(=O)N[C@@H](CCSC)C(=O)N[C@@H](CCC(=O)O)C(=O)N[C@@H](CCCNC(=N)N)C(=O)N[C@H](C(=O)N[C@@H](CCC(=O)O)C(=O)N[C@@H](Cc1c[nH]c2ccccc12)C(=O)N[C@@H](CC(C)C)C(=O)N[C@@H](CCCNC(=N)N)C(=O)N[C@@H](CCCCN)C(=O)N[C@@H](CCCCN)C(=O)N[C@@H](CC(C)C)C(=O)N[C@@H](CCC(N)=O)C(=O)N[C@@H](CC(=O)O)C(=O)N[C@H](C(=O)N[C@@H](Cc1c[nH]cn1)C(=O)N[C@@H](CC(N)=O)C(=O)N[C@@H](Cc1ccccc1)C(=O)O)C(C)C)C(C)C [TGplPTH1-34]
results compared to the control groups (sham control and autograft), under heading Biomechanical Testing: improved results

— patent publication US10589001B2, “Pharmaceutical formulation for use in spinal fusion” (Kuros Biosurgery AG, priority 2011, dated 2020)
